This is an account of results in PubChem BioAssay AID445 (National Center for Advancing Translational Sciences (NCATS), 2006).

Structures are written as SMILES. This is one part of the list. The main result of the screen is listed elsewhere. These columns were measured beside it and carry no call. Compounds called inactive in the main read-out are mostly missing here. Potencies come from curve fits of mixed quality, noted in brackets.

This test can be described thus: IkB Signaling. Particulars: ABC-DLBCL IkBa-CBG/CBR dual luciferase ratio (green luciferase fused to IkBa over red control in OCI-Ly3 lymphoma cells), 4 h; measured here: control luc red channel unless noted. In a few lines:
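Curves were fitted separately to fusion (green), unfused (red) and ratio luminescence, then classed by r2, magnitude and activity. Cells: OCI-Ly3, 4 h compound plus doxycycline at 37C; 10 uM MG-132 defined full response.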
One may read the AC50 as the midpoint of the concentration-response curve, whichever way the signal moves. As to `Cc1ccc(-c2cn3c(n2)sc2cc(C(=O)NCCCc4ccccc4)ccc23)c(C)c1`, the half-maximal activity concentration (AC50) is 25.1 µM [falling, single point].
With `CCOC(=O)c1c(CN2CCOCC2)n(C)c2cc(Br)c(O)c(CN(C)C)c12` the figure was 12.6 µM [falling, partial curve, poor fit]; with `O=C(Nc1ccc2nc(-c3ccc(Br)o3)[nH]c2c1)c1cccs1`, 12.6 µM [falling, partial curve].
On to `O=C(Nc1ccccc1)OCCOc1ccccc1`, for which the AC50 is 12.6 µM [falling, partial curve].
As to `CCc1cccc(NC(=O)CN(C)S(=O)(=O)c2ccc3c(c2)CCCN3C(C)=O)c1`, the AC50 was 25.1 µM [rising, partial curve, poor fit].
With `Cc1ccc2oc(=O)n(CCCOc3ccccc3Cl)c2c1` the figure was 39.8 µM [falling, single point]; with `CC(CCc1ccccc1)NC(=O)Cn1c(=O)nc(-c2ccccc2)c2ccccc21` (centres undefined), 12.6 µM [falling, partial curve].
Regarding `CCOC(=O)c1cnc2c(C)c(Cl)ccc2c1Nc1ccc(N2CCOCC2)cc1`, the AC50 was 7.94 µM [falling, partial curve].
With `Cc1ccccc1Nc1c(-c2cccnc2)nc2ccc(Cl)cn12` the figure was 20 µM [falling, single point]; with `COc1ccc(C2=C(Nc3ccc(C)cc3C)c3ccccc3C2=O)cc1`, 31.6 µM [falling, partial curve].
With `Cc1cc(-c2[nH]nc3c2C(c2ccsc2)C(C#N)=C(N)O3)c(C)s1` (centres undefined) the figure was 6.31 µM [falling, full curve]; with `O=C(Cn1cnc2c(cnn2-c2ccccc2)c1=O)OCc1ccccc1`, 39.8 µM [falling, single point].
`Cc1ccn2c(=O)cc(COc3cccc(NC(=O)Nc4cccc(Cl)c4C)c3)nc2c1`: the AC50 is 5.01 µM [falling, partial curve].
The value for `COc1ccccc1NC(=O)C1=C(C)Nc2nc3ccccc3n2C1c1cccc(OC)c1OC` (centres undefined) was 31.6 µM [falling, single point].
With `Cc1ccc(CNC(=O)c2ccc(CS(=O)Cc3cccc(Cl)c3)o2)cc1` (centres undefined), the AC50 was 15.8 µM [falling, single point].
`CCC(=O)N1CCN(c2nc(-c3ccccc3)c3c(c2C#N)CCCC3)CC1`: the AC50 is 3.16 µM [falling, partial curve].
For the molecule `CCOc1cc(C(=O)NCC(c2ccc(N(C)C)cc2)N2CCOCC2)cc(OCC)c1OCC` (centres undefined), the AC50 is 10 µM [falling, partial curve].
As for `Cc1cccc2c1-c1sc(C(=O)N(C)c3cccc(Cl)c3)cc1CO2`, the AC50 is 31.6 µM [falling, single point].
The value for `CC(C)c1cnc2c(c1SCC(=O)NCc1ccccc1Cl)c(=O)n(C)c(=O)n2C` was 5.01 µM [falling, partial curve]; that for `O=C(c1ccc2c(c1)N(Cc1cccc(F)c1)C(=O)c1ccccc1S2)N1CCCC1` was 2.51 µM [rising, partial curve].
As for `CSc1ccc(CCNC(=O)CCc2c(C)nc3ncnn3c2C)cc1`, the AC50 is 0.02 µM [falling, full curve, poor fit].
`COc1cc2c(cc1OC)C(C)N(C(=O)c1cc3n(n1)C(C(F)(F)F)CC(c1ccco1)N3)CC2` (centres undefined): the AC50 was 39.8 µM [falling, single point].
`Cn1nnnc1SCCNCc1cc(Br)ccc1OCc1ccccc1Cl`: the half-maximal activity concentration (AC50) is 39.8 µM [falling, single point].
As to `Cc1ccc(C(=O)Nc2cccc3cccnc23)cc1Cl`, the AC50 was 0.316 µM [rising, partial curve, poor fit].
`CCOC(=O)CSc1nc2ccc(NC(=O)c3cccc(F)c3)cc2s1`: the AC50 was 20 µM [falling, single point].
`O=c1c(NCc2cccs2)nccn1-c1ccc(F)cc1`: the AC50 is 12.6 µM [falling, partial curve].
The value for `COc1cccc(NC(=O)CN(CCc2ccccc2)S(=O)(=O)c2ccc(Cl)cc2)c1` was 25.1 µM [falling, single point].
`CCOc1ccc(NS(=O)(=O)c2ccc3[nH]c4c(c3c2)CCCCC4)cc1`: the AC50 is 31.6 µM [falling, single point].
For the molecule `O=C(COCc1cc(-c2ccc(F)cc2)on1)Nc1cc(F)ccc1F`, the AC50 was 0.0794 µM [falling, full curve].
The value for `CCOc1ccccc1NS(=O)(=O)c1ccc2c(c1)oc(=O)n2C` was 0.00794 µM [falling, full curve, poor fit].
The value for `CCc1cc2c(cc3c(=O)n(CCCC(=O)NCc4cccc(Cl)c4)ncn32)s1` was 10 µM [falling, partial curve]; that for `COc1ccc(NC(=O)c2oc3ccccc3c2NC(=O)Cc2coc3c(C)c(C)ccc23)cc1` was 2.51 µM [falling, full curve]; that for `O=C(Nc1ncc(Cc2ccccc2)s1)C1CCCO1` (centres undefined) was 10 µM [falling, partial curve].
Consider `Cc1ccc(S(=O)(=O)c2nc(S(=O)(=O)c3ccccc3)sc2NCCCOC(C)C)cc1`, for which the AC50 is 0.2 µM [rising, full curve, poor fit].
As to `COc1ccc(OC)c(CCNC(=O)CS(=O)(=O)Cc2nc(-c3ccccc3C)oc2C)c1`, the AC50 is 12.6 µM [falling, partial curve].
Turning to `O=C(CSc1n[nH]c(-c2ccc(F)cc2)n1)NCCc1ccccc1`, the AC50 is 20 µM [falling, single point].
The value for `N#Cc1cc(Cl)c(N2CCOCC2)cc1C#N` was 12.6 µM [rising, partial curve]; that for `COc1cccc(NC(=O)Cn2cc(C(=O)c3ccc(C)cc3)c(=O)c3cc(OC)ccc32)c1` was 15.8 µM [falling, partial curve]; that for `CCOC(=O)c1c(Nc2ccc(OC)cc2)nnc(-c2ccccc2)c1-c1ccccc1` was 15.8 µM [falling, partial curve].
Regarding `CCOc1ccc(NC(=O)COc2ccc(S(=O)(=O)NC3CCCCC3)cc2)cc1`, the AC50 was 7.94 µM [falling, partial curve].
With `COc1ccc(-c2csc(=Nc3ccccc3)n2CCO)cc1F` the figure was 39.8 µM [falling, single point].
With `Cc1cccn2c(=O)c(C(=O)NCc3cccc(F)c3)cnc12` the figure was 12.6 µM [rising, partial curve].
The value for `CCOc1ccc(CNC(=O)Cc2ccc(NC(=O)N3CCSc4ncccc43)cc2)cc1` was 20 µM [falling, single point]; that for `Cc1ccc(Cl)cc1Nc1nn2c(=O)c3ccc(C(=O)NCc4ccc(F)cc4)cc3nc2s1` was 25.1 µM [falling, single point]; that for `COc1ccc(Nc2c(-c3cccc(O)c3)nc3cnccn23)cc1` was 0.01 µM [falling, full curve].
On to `CCOC(=O)N1CCc2c(sc3c2c(=O)n(-c2ccc(Cl)cc2)c(=O)n3CC(C)C)C1`, for which the AC50 was 31.6 µM [falling, single point].
With `O=c1cc(-c2ccc(F)cc2)nc(SCc2nc(-c3ccc(Cl)cc3)no2)[nH]1` the figure was 20 µM [rising, partial curve]; with `C/C(=C\c1ccco1)C1Nc2cccc3cccc(c23)N1`, 3.98 µM [rising, partial curve] [measured here: IkB-luc green channel]; with `Cc1ccc(Cn2ccc(NC(=O)c3c(-c4ccccc4Cl)noc3C)n2)cc1`, 25.1 µM [falling, partial curve].
Turning to `COc1cc(C(=O)NCC(c2ccc(Cl)cc2)N2CCOCC2)cc(OC)c1OC` (centres undefined), the AC50 is 15.8 µM [falling, partial curve].
The value for `COc1ccc(NC(=O)Nc2ccc(C)cc2OC(F)F)cc1OC` was 12.6 µM [falling, partial curve]; that for `O=C(Cn1c(=O)nc(-c2ccccc2)c2ccccc21)NCc1ccccc1Cl` was 31.6 µM [falling, single point].
The value for `COc1cc(NC(=O)CCn2nc(C)c(S(=O)(=O)N3CCCCC3)c2C)cc(OC)c1OC` was 39.8 µM [falling, single point]; that for `CCCC(=O)N1CCN(c2ccc(NC(=O)c3cc4ccccc4o3)cc2Cl)CC1` was 3.16 µM [falling, full curve].
With `c1ccc2c(c1)CCN(c1nc3cc4c(cc3s1)OCCO4)C2` the figure was 12.6 µM [falling, partial curve]; with `COc1ccc(Cl)cc1NC(=O)c1c(NCc2cccnc2)sc2c1CCC(C)C2` (centres undefined), 10 µM [falling, partial curve].
Turning to `Cc1ccc(Cl)cc1NC(=O)CCCn1c(=O)c2cccn2c2cccnc21`, the AC50 was 31.6 µM [falling, single point].
With `COc1ccccc1NC(=O)C1=C(C)Nc2c(C(=O)Nc3cccc(C)c3)cnn2C1c1ccccc1Cl` (centres undefined) the figure was 10 µM [falling, partial curve]; with `CCN1CCN(C(c2ccc(SC)cc2)c2c(O)cc(C)n(CCOC)c2=O)CC1` (centres undefined), 12.6 µM [falling, partial curve]; with `COc1ccc(CNC(=O)CS(=O)Cc2nc(-c3cccc(C)c3)oc2C)cc1` (centres undefined), 31.6 µM [falling, single point].
With `COc1cc(CNCCSc2nnnn2C)cc(Cl)c1OCc1ccccc1` the figure was 15.8 µM [falling, single point]; with `COc1cccc(NC(=O)Nc2nnc(N3CCCCC3C)s2)c1` (centres undefined), 12.6 µM [falling, partial curve]; with `CCCCN(CC)CCNC(=O)c1cc2c(=O)n(CC)c3ccccc3c2s1`, 5.01 µM [falling, partial curve].
The value for `CC(C)(Oc1ccc(Br)cc1)C(=O)Nc1cc(-c2nc3ccccc3[nH]2)ccc1Cl` was 12.6 µM [falling, partial curve].
